Experimental findings from article PMC4326362 are described below.

Amino acid sequences for entries named in this document (tags omitted). Residues count along the entry.
UniProt Q9JHG7: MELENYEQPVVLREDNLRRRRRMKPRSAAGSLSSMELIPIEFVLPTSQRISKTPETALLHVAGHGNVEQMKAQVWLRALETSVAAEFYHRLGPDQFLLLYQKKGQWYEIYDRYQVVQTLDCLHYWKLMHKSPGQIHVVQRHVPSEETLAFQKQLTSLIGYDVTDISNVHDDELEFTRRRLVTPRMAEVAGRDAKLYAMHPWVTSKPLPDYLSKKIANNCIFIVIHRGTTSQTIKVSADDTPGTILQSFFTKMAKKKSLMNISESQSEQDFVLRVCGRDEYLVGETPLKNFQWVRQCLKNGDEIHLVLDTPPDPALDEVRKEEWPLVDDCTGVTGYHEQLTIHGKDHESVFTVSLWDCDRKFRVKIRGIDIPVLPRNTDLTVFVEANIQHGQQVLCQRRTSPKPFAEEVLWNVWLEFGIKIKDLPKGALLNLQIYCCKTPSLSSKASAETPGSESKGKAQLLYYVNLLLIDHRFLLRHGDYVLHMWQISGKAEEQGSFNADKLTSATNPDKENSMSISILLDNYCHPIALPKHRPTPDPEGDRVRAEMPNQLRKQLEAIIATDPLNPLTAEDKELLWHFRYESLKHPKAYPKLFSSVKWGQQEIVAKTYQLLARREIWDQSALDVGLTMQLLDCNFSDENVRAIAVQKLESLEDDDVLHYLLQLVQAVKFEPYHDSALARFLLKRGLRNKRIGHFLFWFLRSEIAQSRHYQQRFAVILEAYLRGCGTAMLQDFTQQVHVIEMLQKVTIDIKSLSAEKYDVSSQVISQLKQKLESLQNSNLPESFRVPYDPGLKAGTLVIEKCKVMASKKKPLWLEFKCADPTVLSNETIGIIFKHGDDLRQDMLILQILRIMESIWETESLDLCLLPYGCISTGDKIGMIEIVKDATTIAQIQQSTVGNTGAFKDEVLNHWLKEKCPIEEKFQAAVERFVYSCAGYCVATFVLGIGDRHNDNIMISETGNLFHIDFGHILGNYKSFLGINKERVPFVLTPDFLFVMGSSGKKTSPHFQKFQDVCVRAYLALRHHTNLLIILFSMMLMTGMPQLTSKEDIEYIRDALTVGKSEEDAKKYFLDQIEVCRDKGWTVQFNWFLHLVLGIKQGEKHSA
UniProt P48736, residues 141-311: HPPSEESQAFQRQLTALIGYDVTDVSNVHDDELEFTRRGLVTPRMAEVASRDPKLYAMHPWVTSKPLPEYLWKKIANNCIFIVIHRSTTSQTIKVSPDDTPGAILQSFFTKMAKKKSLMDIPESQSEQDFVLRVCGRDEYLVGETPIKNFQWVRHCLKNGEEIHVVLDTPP

Assay [1] concerns the target T1, CNGA1 of mouse rod outer segments (mouse (endogenous in ROS)) (UniProt P29974).
T1 sequence: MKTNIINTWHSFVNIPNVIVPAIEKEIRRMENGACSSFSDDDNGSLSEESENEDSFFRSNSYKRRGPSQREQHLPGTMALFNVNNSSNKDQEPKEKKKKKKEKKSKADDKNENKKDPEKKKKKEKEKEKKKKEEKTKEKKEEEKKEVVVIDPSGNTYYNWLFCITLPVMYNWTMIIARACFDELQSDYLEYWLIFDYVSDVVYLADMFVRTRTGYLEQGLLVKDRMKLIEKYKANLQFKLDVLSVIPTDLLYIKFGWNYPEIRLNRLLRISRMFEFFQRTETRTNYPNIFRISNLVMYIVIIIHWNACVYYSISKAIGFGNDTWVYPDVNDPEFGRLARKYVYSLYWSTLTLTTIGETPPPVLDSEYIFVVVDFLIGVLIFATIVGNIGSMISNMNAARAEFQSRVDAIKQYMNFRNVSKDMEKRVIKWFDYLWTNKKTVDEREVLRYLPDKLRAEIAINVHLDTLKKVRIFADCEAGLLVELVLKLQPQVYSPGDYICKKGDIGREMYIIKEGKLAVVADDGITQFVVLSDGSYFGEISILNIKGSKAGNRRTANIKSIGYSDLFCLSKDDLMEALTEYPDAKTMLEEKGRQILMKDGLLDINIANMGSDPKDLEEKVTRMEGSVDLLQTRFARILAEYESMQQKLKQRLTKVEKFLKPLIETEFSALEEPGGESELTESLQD
Briefly: co-IP; solubilized ROS immunoprecipitated with anti-CNGA1 antibody or non-immune IgG; PI3K detected in the immunoprecipitates by its activity on PI-4,5-P2 and [γ32P]ATP (TLC, scintillation counting); also from dark- and light-adapted mice and from IR wild-type and IR knockout mice.

In assay [2] the target is T2, full-length CNGA1 in the pDHB1 membrane-based yeast two-hybrid bait vector (UniProt Q00194).
T2 sequence: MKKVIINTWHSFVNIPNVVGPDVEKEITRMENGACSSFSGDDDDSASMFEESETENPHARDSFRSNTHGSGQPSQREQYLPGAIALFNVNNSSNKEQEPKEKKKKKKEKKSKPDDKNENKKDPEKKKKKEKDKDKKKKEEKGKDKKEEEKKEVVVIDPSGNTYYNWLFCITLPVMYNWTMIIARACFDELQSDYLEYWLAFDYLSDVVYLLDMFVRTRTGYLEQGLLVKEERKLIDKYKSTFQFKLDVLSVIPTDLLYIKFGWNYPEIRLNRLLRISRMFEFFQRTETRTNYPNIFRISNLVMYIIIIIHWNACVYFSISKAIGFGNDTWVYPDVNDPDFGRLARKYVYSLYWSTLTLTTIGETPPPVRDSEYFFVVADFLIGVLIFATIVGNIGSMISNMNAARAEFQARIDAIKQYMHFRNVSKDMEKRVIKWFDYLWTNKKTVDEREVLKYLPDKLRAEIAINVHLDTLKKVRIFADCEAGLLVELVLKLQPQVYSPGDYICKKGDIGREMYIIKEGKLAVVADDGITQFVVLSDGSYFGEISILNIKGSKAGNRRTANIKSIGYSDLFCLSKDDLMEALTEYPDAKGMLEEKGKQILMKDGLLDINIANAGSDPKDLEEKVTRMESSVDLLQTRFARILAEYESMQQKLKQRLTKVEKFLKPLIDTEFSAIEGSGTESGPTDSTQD
As to the kind of experiment: two-hybrid; split ubiquitin-based membrane yeast two-hybrid in DSY-1 yeast; full-length CNGA1 in pDHB1 as bait, preys in pDL2-Nx; filter lift and liquid β-galactosidase assays.

No constants are given. Whether binding was seen depends on the method and setting. For some assays here: In cells and extracts the contact can be indirect. Some binding calls cover weakened binding; strength is not graded here.

Consider “PI3Kγ of mouse rod outer segments (from UniProt Q9JHG7 1-1102) (enzyme)”, for which, in assay [1], the binding entry was “binds”.

As for “RA-PI3Kγ in the pDL2-Nx prey vector (from UniProt P48736 141-311) (domain or fragment)”, the binding result in assay [2] was “binds”.
